The campaign covered roughly 360,000 compounds. About 9,100 (2.5%) were called active. Inconclusive results, whose numbers are uncertain, are shown with a selection of clear calls. Cut-off read from the data, not from the text of the source: active = max response below about -50%; inconclusive = no clear call, values can overlap the other calls; inactive = above that.
biological target: D(3) dopamine receptor (Homo sapiens) (UniProt P35462); test: qHTS of D3 Dopamine Receptor Antagonist: qHTS; details: D3R cells, DiscoveRx beta-arrestin luminescence, antagonist mode; stronger effect = lower value
How it was run: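 Cells plated overnight at 1500 cells/well, then exposed to library compounds with dopamine controls for 90 minutes at 37 degrees C. DiscoveRx reagent added for 30–60 minutes at room temperature; luminescence read, quantitative HTS format.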
% is set by controls: 0 for no effect and ±100 for the full control effect.

By UniProt entry, the sequences of proteins in these tests, tags left out.
UniProt P35462, whole entry, looked up: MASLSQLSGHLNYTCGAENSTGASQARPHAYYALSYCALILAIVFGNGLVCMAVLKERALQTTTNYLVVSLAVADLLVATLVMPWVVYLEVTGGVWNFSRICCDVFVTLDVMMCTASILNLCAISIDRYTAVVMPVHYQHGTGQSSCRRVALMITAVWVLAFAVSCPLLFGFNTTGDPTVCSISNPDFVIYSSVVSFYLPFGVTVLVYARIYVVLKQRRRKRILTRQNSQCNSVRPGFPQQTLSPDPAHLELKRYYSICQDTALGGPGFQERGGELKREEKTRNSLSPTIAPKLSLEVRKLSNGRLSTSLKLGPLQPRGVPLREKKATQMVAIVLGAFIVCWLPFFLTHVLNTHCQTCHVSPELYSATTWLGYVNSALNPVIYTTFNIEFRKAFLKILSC

Max response, negative = inhibition, inactive:
CCOC(=O)c1sc(NC(=O)c2cc(-c3ccccc3C)nc3ccccc23)c(C#N)c1C 40.4%, CC(C)(C)OC(=O)N1CCC[C@H]1c1nnc(SCc2ccc(Cl)cc2Cl)o1 -15.2%, COc1ccccc1C(=O)N1CCN=C1c1ccccc1 -9.39%, CCc1ccccc1NC(=O)CN(C)C(=O)Cn1ncc(Cl)c(Cl)c1=O -19.3%, CS(=O)(=O)N(CC(=O)N1CCc2ccccc2C1)c1cccc([N+](=O)[O-])c1 -3.11%, CC(C)Oc1ccc(/C=C/C(=O)NCC2COc3ccccc3O2)cc1 (centres undefined) 2.77%, C=CCNC(=S)N/N=C/c1ccc(C(F)(F)F)cc1 3.23%, Cc1onc(-c2ccccc2)c1C(=O)OCC(=O)c1ccc(F)cc1 -12.2%, COc1cccc(-n2nc(-c3ccnn3-c3ccc(C)cc3)c(=O)n(C)c2=O)c1 -23.9%, Cc1cccc(C(=O)Nc2nnc(-c3cccnc3)o2)c1 -10.5%, COc1ccc(OC)c(CC(=O)NC(c2ccccc2)c2ccccc2)c1 2.72%, CC1(C)CC(=O)c2cc(OCC(=O)NCc3cccnc3)ccc2O1 14.9%, O=C(c1ccncc1)c1ccc(NC(=O)c2cccs2)cc1 3.75%

Max response, negative = inhibition, inconclusive:
CCN(CC1CCCN(CCc2cccc(OC)c2)C1)C(=O)c1ccoc1C (centres undefined) -30.2%, CCOn1c(=O)c(-c2cccs2)[n+]([O-])c2ccccc21 -37.5%, O=C(c1csc2c1CCCCC2)N1CCN(c2ncccn2)CC1 -35.3%, Cc1c(CN2CCCC(C(=O)c3cccc(Cl)c3)C2)c(=O)n(-c2ccccc2)n1C (centres undefined) -36.8%, Cn1c(=O)n(C)c2cc(C(=O)Nc3ccc(Br)cc3)ccc21 -48.4%, Oc1cc(Br)ccc1C=Nc1ccc(N2CCCCC2)cc1 -35.5%, OCC1(Cc2ccc(Cl)cc2)CCN(Cc2ccccc2F)CC1 -46.6%, COc1cc([N+](=O)[O-])ccc1NC(=S)Nn1cnnc1 -41.4%, CSc1ncccc1C(=O)Nc1nc2ccc(S(C)(=O)=O)cc2s1 -32.9%, O=C(Cc1ccc(Cl)cc1)Nc1ccc2c(c1)C(=O)NC2=O -33.5%, O=C(NC1CCCCC1)c1c2c(nc3ccccc13)CCC2 -32.1%, CC(OC(=O)Cn1c(C(F)(F)F)nc2ccccc21)C(=O)N1CCCc2ccccc21 (centres undefined) -39%, CCN1CCN(c2ncnc3c2cnn3-c2ccc(C)cc2C)CC1 -33.1%, COc1cccc(C(=O)N2CCN(CCCc3ccccc3)CC2)c1OC -33%, CC(=O)Nc1ccc(N2C(=O)CSC2c2c(F)cccc2Cl)cc1 (centres undefined) -35.1%, O=C(NCC1CCCN(Cc2cccc(C(F)(F)F)c2)C1)c1ccc(F)cc1 (centres undefined) -46.3%, CCOC(=O)C(Cc1ccccc1)C1(C)Oc2ccccc2O1 (centres undefined) -33.6%, Cc1nnc(NC2(C(F)(F)F)C(=O)Nc3c2c(=O)n(C)c(=O)n3C)s1 (centres undefined) -34.9%, Cc1ccc(C(=O)/C=C/c2ccccc2)o1 -44.1%, CC(C)(C)NS(=O)(=O)c1ccc(NS(=O)(=O)c2ccc(F)cc2)cc1 -35.2%, O=C(NCC1CCCO1)c1ccc2c(=O)n(CC3CCCO3)c(=S)[nH]c2c1 (centres undefined) -32.5%, O=[N+]([O-])c1ccc(Cl)c2cccnc12 -42.9%, Clc1cc(Br)ccc1OCCOCCOc1cccc2cccnc12 -40.3%, CCCCc1ccc(NC(=S)Nc2ccc(Cl)c(S(=O)(=O)N(C)C)c2)cc1 -49.9%, O=C(CNCc1cccc2ccccc12)Nc1ccccc1[N+](=O)[O-] -46.8%, Cc1cc(/C=N/NC(=O)c2ccccc2F)c(C)n1-c1ccccc1 -31.9%

Max response, negative = inhibition, active:
Cc1n[nH]c(=S)n(NC(=O)CC(=O)Nn2c(=S)[nH]nc(C)c2=O)c1=O -85.7%, C=CCSc1nc2ccccc2n1C(=O)/C=C/c1cc(OC)c(OC)c(OC)c1 -60.9%, C=C1CSc2nc3ccccc3c(=O)n21 -55.4%, O=C(Cc1cccc([N+](=O)[O-])c1)Nc1cccc(C(=O)N2CCOCC2)c1 -51%, CCCCn1nnnc1C(C1CC1)N1CCN(C/C=C/c2ccccc2)CC1 (centres undefined) -137%
